Laboratory results: publication PMC6292692
These are yes or no findings as the source states them, for the method shown. In cells and extracts the contact can be indirect. Some results given as binding are weak or reduced against the parent protein; the word gives no strength.

What was measured:
[1] = biological target: T1, RNF145 (RING Finger Protein 145), endogenous (human (endogenous in HeLa)) (UniProt Q96MT1); experiment: condition: only sterol-depleted cells (20 hr), no sterols added back; co-IP; as a3 (HeLa WT; ΔUBE2G2 #1), but cells sterol-depleted (20 hr) without sterols added back
T1 sequence: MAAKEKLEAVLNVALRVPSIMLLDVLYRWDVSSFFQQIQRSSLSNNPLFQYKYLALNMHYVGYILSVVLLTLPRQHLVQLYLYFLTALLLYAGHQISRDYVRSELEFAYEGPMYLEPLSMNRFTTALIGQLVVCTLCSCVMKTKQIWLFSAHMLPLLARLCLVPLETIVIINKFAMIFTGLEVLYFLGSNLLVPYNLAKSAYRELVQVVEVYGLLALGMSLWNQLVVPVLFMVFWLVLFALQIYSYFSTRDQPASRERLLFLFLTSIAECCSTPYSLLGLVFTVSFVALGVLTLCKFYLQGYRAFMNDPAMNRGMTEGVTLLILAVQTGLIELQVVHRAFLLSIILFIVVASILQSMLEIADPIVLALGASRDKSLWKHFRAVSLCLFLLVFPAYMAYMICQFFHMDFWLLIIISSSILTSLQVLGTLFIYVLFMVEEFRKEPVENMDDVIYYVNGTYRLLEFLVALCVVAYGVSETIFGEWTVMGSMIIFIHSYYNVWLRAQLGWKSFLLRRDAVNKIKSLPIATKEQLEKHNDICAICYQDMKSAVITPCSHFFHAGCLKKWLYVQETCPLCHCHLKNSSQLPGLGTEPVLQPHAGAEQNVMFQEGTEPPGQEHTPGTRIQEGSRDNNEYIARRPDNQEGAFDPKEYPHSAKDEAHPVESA

[2] = biological target: T1, RNF145 (RING Finger Protein 145), endogenous (human (endogenous in HeLa)); experiment: co-IP; endogenous RNF145 immunoprecipitated with anti-RNF145 and Protein A-Sepharose from 1% digitonin lysate, 4°C overnight; cells (HeLa WT; ΔUBE2G2 #1, also with gHMGCR or gCTR; HMGCR-Clover HeLa WT with gUBE2G2) sterol-depleted 20 hr, sterols added back 1 hr, with NMS-873 in some panels; partners eluted with 1% Triton X-100; HMGCR and Insig-1 detected by immunoblot

B1: Insig-1 (Insulin Induced Gene 1), endogenous (protein, UniProt O15503 1-277)
chain: MPRLHDHFWSCSCAHSARRRGPPRASAAGLAAKVGEMINVSVSGPSLLAAHGAPDADPAPRGRSAAMSGPEPGSPYPNTWHHRLLQRSLVLFSVGVVLALVLNLLQIQRNVTLFPEEVIATIFSSAWWVPPCCGTAAAVVGLLYPCIDSHLGEPHKFKREWASVMRCIAVFVGINHASAKLDFANNVQLSLTLAALSLGLWWTFDRSRSGLGLGITIAFLATLITQFLVYNGVYQYTSPDFLYIRSWLPCIFFSGGVTVGNIGRQLAMGVPEKPHSD
binding [1]: no binding
binding [2]: binds
